According to US20150030603A1:
Results are given in words; binding and its absence hold for the method and conditions named. Some results given as binding are weak or reduced against the parent protein; the word gives no strength.

Sequences of proteins named here, by UniProt entry; tags and fusion partners are left off. A change or cut given only in a name is not applied to a line headed by its entry.
UniProt O15123: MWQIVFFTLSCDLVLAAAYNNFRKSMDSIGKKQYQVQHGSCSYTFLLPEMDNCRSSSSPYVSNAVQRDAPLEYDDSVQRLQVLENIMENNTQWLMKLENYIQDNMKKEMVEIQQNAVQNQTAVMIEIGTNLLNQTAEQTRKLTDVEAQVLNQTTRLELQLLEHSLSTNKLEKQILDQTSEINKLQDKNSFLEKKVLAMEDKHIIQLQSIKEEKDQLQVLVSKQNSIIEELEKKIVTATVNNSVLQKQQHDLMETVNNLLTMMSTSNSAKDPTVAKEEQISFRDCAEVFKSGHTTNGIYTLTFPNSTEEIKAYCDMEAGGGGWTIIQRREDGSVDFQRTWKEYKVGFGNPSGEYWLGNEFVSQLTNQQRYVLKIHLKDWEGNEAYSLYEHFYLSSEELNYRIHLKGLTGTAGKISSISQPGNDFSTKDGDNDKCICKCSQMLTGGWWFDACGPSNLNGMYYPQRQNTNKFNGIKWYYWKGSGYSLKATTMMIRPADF

Target: FLAG-tagged hAng-2 (human) (UniProt O15123)
Test: sandwich (complex) ELISA: coated Tie2-Fc, FLAG-Ang2 0.25 µg/ml and 10D6 2 µg/ml added, bound 10D6 detected with anti-mouse IgG-HRP (OD450)

B1: SAIT-ANG2-AB-m10D6 (antibody, V domains shown)
VH: DVQLQESGPGLVKPSQSLSLTCTVTGYSITSDYAWNWIRQFPGNKLEWMGYINYSGNTDYNPSLKSRSSITRDTSKNQFFLQLNSVTTGDTATYYCARGNFEGAMDYWGQGTSVTVSS
VL: SIVMTQTPKFLLVSAGDRVTITCKASQSVSNDVAWYQQKPGQSPKLLIYYASNRYPGVPDRFTGSGYGTDFTFTISTVQAEDLAVYFCQQDYSSPWTFGGGTKLEIK
- binding: binds
